PubChem BioAssay AID1159579, Peter MacCallum Cancer Centre, 2015

Assay: 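Find genes whose silencing alters migration of lymphatic endothelial cells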 (follow-up of hits)
Cells: human dermal lymphatic endothelial cells
Reagents: single siRNA against human genes, 25 nM
Detection: 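Scratch wound imaging measuring area filled by moving cells plus nuclei number, averaged over two wells and scaled to mock-transfected controls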
Scale: migration relative to mock: higher = more migration into the scratch; mean nuclei count: higher = more cells remaining
Hit rule: 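Called active when the migration ratio is 0.6 or lower (impaired) or 1.3 or higher (accelerated), but inactive whenever the mean nuclei count falls under 3300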
Calls: active = migration changed (impaired or accelerated); inactive = no migration change, or too few cells
The deposit covers about 2,000 reagents; this is a part drawn at random. 549 of all reagents (27%) count as active. 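Some migration ratios are negative; siRNAs with too few cells are inactive whatever their migration ratio.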 Unmarked entries are inactive. Reagents against one gene are numbered here. Further read-outs or replicates are left out here. Reagent sequences are not shown. Not stated in the record: the time to read-out.

| gene | siRNA no. | migration relative to mock | mean nuclei count |
| --- | --- | --- | --- |
| PLB1 | 1 | 0.69 | 4754 |
| PLB1 | 2 | 0.52 (active) | 5389 |
| PLB1 | 3 | 0.44 (active) | 4559 |
| PLB1 | 4 | 1.06 | 5416 |
| ANAPC7 | 1 | 0.68 | 4795 |
| ANAPC7 | 2 | 0.88 | 5430 |
| ANAPC7 | 3 | 0.62 | 5935 |
| ANAPC7 | 4 | 0.23 (active) | 4366 |
| SLC3A2 | 1 | 0.29 (active) | 4196 |
| SLC3A2 | 2 | 0.44 | 2797 |
| SLC3A2 | 3 | 1.07 | 5744 |
| SLC3A2 | 4 | 0.86 | 6428 |

4 of these entries, set out differently:
gene,siRNA no.,migration relative to mock,mean nuclei count
ANAPC7,4,0.23 (active),4366
SLC3A2,1,0.29 (active),4196
SLC3A2,2,0.44,2797
SLC3A2,3,1.07,5744

The listing continues:
| gene | siRNA no. | migration relative to mock | mean nuclei count |
| --- | --- | --- | --- |
| FAM24A | 1 | 0.8 | 5780 |
| FAM24A | 2 | 0.8 | 4896 |
| FAM24A | 3 | 0.5 (active) | 4336 |
| FAM24A | 4 | 0.88 | 4302 |
| ATL3 | 1 | 1.02 | 6278 |
| ATL3 | 2 | 0.4 (active) | 5444 |
| ATL3 | 3 | 0.88 | 5607 |
| ATL3 | 4 | 0.88 | 4634 |
| KDR | 1 | -0.34 (active) | 4242 |
| KDR | 2 | 0.68 | 6043 |
| KDR | 3 | 0.94 | 6139 |
| KDR | 4 | 0.68 | 4870 |
| DEFB124 | 1 | 1.08 | 6004 |
| DEFB124 | 2 | -0.32 | 2744 |
| DEFB124 | 3 | 0.99 | 5932 |
| DEFB124 | 4 | 0.72 | 5302 |
